{"source": "paper PMC3841200", "binders": {"B1": {"name": "REGULATOR OF CBF GENE EXPRESSION 3 (RCF3), endogenous (protein, UniProt Q8W4B1 1-652)", "chain": "MERSRSKRNYHYDQDYDGDSMPRSKPRYNNNYHFGGGGGGNNRYRGGGGGGGGNGRPSKSHPETMATTTYRILCHDAKAGGVIGKSGTIIKSIRQHTGAWINVHELVPGDAERIIEISDNRRRDPDGRMPSFSPAQEALFSVHDRILESEAQFGYGGPPPEEEEDYGGVRPGGGRVVTRLVVSRMHVGCLLGKGGKIIEQMRIETKTHIRILPRESNLPRCVSLSEEIVQIVGELNAVKNALAIVSSRLRESQHRDRSNFQGRSHSPERSFAAAGDDYMPQLRRQSSDRFPRGNFRNNNFSSRQSNYAEEAPAVPVGENVYSEELVFQILCPADKIVRVVGESQGIIDLLQNEIGVDVRVSDPVAGSDEQIITISSEEAPDDPFFPAQEALLHIQTQIIDLIPDKDNLITTRLLVPSRDSICLEGKAGSVSEISRLTGTSVQILAREEIPRCASINDVVIQITGEIRAAREALVELTLLLRSHMFKELSQKETPPASTSTTGPLEGVAGVMEVASSNNTIQSREGPTSSNLNLQQVSTILPQFKEGFGSVAKAGESEHREEVPVTTSRMAVPLVTRSTLEVVLPEAVVPKLVTKSRNKLAQISEWSGASVTIVEDRPEETQNIIRISGTPEQAERAQSLLQGFILSIQEDGP"}}, "biological_target": "T1, CPL1 fused to [3xFLAG]-[Streptavidin-binding peptide]-[Protein G] tandem-affinity-purification tag (CPL1-FSG) (Arabidopsis thaliana) (UniProt Q5YDB6)", "T1 sequence": "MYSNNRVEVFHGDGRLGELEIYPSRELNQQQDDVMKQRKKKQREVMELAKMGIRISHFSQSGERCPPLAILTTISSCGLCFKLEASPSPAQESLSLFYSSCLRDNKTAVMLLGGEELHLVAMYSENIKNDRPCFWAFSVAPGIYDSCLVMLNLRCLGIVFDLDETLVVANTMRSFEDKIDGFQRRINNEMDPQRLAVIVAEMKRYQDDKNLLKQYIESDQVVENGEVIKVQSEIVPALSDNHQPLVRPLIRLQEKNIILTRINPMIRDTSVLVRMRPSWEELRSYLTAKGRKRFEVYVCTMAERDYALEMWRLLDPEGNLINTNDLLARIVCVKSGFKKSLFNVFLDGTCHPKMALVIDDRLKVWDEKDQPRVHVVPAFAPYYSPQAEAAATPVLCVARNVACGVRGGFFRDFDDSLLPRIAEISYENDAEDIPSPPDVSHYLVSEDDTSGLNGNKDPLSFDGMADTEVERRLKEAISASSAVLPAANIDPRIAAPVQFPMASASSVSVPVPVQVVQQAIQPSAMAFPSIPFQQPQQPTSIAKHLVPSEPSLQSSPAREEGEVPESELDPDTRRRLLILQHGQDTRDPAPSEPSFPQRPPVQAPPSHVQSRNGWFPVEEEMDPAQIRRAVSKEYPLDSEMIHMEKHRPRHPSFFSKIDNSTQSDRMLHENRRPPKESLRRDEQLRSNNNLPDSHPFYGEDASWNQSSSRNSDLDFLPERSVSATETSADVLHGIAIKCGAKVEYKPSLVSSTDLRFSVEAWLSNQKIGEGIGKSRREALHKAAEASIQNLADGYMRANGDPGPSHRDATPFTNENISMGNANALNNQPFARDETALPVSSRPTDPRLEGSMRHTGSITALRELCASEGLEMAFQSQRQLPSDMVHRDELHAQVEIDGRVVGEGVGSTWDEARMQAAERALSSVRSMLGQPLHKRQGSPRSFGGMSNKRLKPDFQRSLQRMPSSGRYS", "assay": "affinity purification with mass spectrometry; tandem affinity purification of CPL1-FSG from callus extract (IgG-Sepharose, TEV cleavage, streptavidin Sepharose, desthiobiotin elution); SDS-PAGE, >200 kDa fraction excised, trypsin, MALDI-TOF/TOF", "note": "Results are given in words; binding and its absence hold for the method and conditions named. Binding seen in cells or lysates may run through a third protein. Here binding means that the protein was enriched with, or labelled near, the bait; the list need not be complete. Sequences can lack the tags named with a protein.", "data": [{"binder": "B1", "values": [{"measurement": "binding", "value": "binds"}]}]}
